According to PubChem BioAssay AID493036 (Sanford-Burnham Center for Chemical Genomics, 2011):
Some of the results follow. Some salts or complexes appear as unconnected parts, following the source record.

Test: NTR1-driven beta-arrestin-GFP spot formation – imaging, U2OS cells, high content, primary screen (AID 493036) (AID 493036)
Conditions: agonist mode, measured here: cell count, cytotoxicity flag, at 20 µM

SMILES | cell count
CCc1nc2c(n1)c1c(non1O)c1c2no[n+]1[O-] | 52 cells
O=[N+]([O-])c1cc([N+](=O)[O-])c(CCNc2ccccc2)c([N+](=O)[O-])c1 | 45 cells
CCc1ccc(OP(C)(=O)Nc2cccnc2)cc1 (stereo not given) | 68 cells
CP(=O)(Oc1ccccc1)N1CCOC1=O (stereo not given) | 40 cells
Cc1ccc(NP(=O)(Oc2ccccc2)Oc2ccccc2)nc1 | 61 cells
O=C(OCCCN1CCCC1)C(O)(c1ccccc1)C1CCCCC1 (stereo not given) | 58 cells
COc1ccccc1OP(C)(=O)Nc1c(C)n(C)n(-c2ccccc2)c1=O (stereo not given) | 65 cells
O=[N+]([O-])c1cccc2n[nH]nc12 | 58 cells
CC(=O)N1C2C3N(C(C)=O)C1C1N(C(C)=O)C(C(N1C(C)=O)N3C(C)=O)N2C(C)=O | 35 cells
COc1ccc(OP(C)(=O)Nc2ccc(Br)cc2)cc1 (stereo not given) | 75 cells
COc1ccc(C2=NCC(CBr)S2)cc1 (stereo not given) | 73 cells
CCN(CC)CC(O)COC(=O)C(O)(c1ccccc1)C1CCCCC1 (stereo not given) | 83 cells
CC1CCN(C(=O)Oc2c(Cl)cc(Cl)c3cccnc23)CC1 | 41 cells
CN(C)C(=O)OCCc1n(C)cc[n+]1C | 77 cells
CN(C)C(=O)c1c([N+](=O)[O-])cc([N+](=O)[O-])cc1[N+](=O)[O-] | 39 cells
CC(C)=N/N=C(\N)N[N+](=O)[O-] | 29 cells
CP(=O)(Nc1ccc(Cl)cc1)Oc1ccc(F)cc1 (stereo not given) | 48 cells
CCN(/C(=N/P(=O)(N1CCOCC1)N1CCOCC1)N1CCOCC1)c1ccc(OC)cc1 | 87 cells
C[N+]1=C2C=CC=CC=C2SC12C([N+](=O)[O-])=CC([N+](=O)[O-])=C[C-]2[N+](=O)[O-] (stereo not given) | 58 cells
CC(C)(C)c1ccc(OP(C)(=O)O)cc1 | 73 cells
Nc1ccc([As](=O)(O)c2ccc(N)cc2)cc1 | 59 cells
COc1ccccc1OP(C)(=O)Nc1ccccc1Br (stereo not given) | 69 cells
CP(=O)(OC12CC3CC(CC(C3)C1)C2)OC12CC3CC(CC(C3)C1)C2 | 60 cells

SMILES | cell count
O=C(Nc1cc([As](=O)(O)O)ccc1O)c1ccccc1 | 85 cells
CCOC(=O)c1ccc(NP(C)(=O)Oc2ccc(Cl)cc2)cc1 (stereo not given) | 77 cells
Nc1ccc2c(ccc3cccnc32)n1.O=[N+]([O-])c1cc([N+](=O)[O-])c(O)c([N+](=O)[O-])c1 | 67 cells
O=[N+]([O-])c1cccc(NC2=NCC(CBr)S2)c1 (stereo not given) | 36 cells
O=[N+]([O-])c1ncn(CCn2ncnc2[N+](=O)[O-])n1 | 38 cells
CC(C)(C)C(=O)NC(Sc1ccncn1)C(Cl)(Cl)Cl (stereo not given) | 50 cells
COc1ccc(OP(C)(=O)Nc2ccccc2Br)cc1 (stereo not given) | 70 cells
Cc1ccc(NP(=O)(Oc2ccccc2F)Oc2ccccc2F)nc1 | 47 cells
CN(C(=O)Cc1ccc(Cl)c(Cl)c1)[C@H]1CCCC[C@@H]1N1CCCC1 | 65 cells
COc1ccccc1OP(C)(=O)Nc1ccc(C)c(C)c1 (stereo not given) | 38 cells
CCOP(=O)(Nc1ccccc1)OCC | 45 cells
Cc1cc(SC(NC(=O)c2ccc(F)cc2)C(Cl)(Cl)Cl)ncn1 (stereo not given) | 55 cells
Cc1cc(C)cc(OP(C)(=O)Nc2cccc(C(F)(F)F)c2)c1 (stereo not given) | 59 cells
O=P(Nc1nc2ccc(Cl)cc2s1)(c1ccccc1)c1ccccc1 | 57 cells
O=C(O)c1ccccc1[As](=O)(O)O | 51 cells
CC(=O)Nc1ccc([As](=O)(O)O)cc1 | 77 cells
CP(=O)(OCCOc1ccccc1)OCCOc1ccccc1 | 51 cells
CP(=O)(Nc1ccc(Cl)cc1Cl)Oc1ccccc1 (stereo not given) | 55 cells
CCN(N=Nc1nonc1N)c1nonc1N | 29 cells
O=[N+]([O-])c1cc([N+](=O)[O-])c(CCN2CCOCC2)c([N+](=O)[O-])c1 | 55 cells
Cc1nc2ccc3ccccc3c2o1.O=[N+]([O-])c1cc([N+](=O)[O-])c(O)c([N+](=O)[O-])c1 | 71 cells
Clc1ccc(Cl)c(NC2=NCC(CBr)S2)c1 (stereo not given) | 23 cells
CN(C)CCOC(=O)C(O)(c1ccccc1)C1CCCC1 (stereo not given) | 52 cells

SMILES | cell count
CN1CCCC(OC(=O)C(c2ccccc2)c2ccccc2)C1 (stereo not given) | 44 cells
Cc1ccc(OP(=O)(Nc2nccs2)Oc2ccc(C)cc2)cc1 | 77 cells
COc1ccc(OP(C)(=O)Nc2ccccn2)cc1 (stereo not given) | 55 cells
COc1ccccc1OP(=O)(Nc1ccc(C)cn1)Oc1ccccc1OC | 23 cells
Cc1ccc(N/C(=N/P(=O)(N2CCOCC2)N2CCOCC2)N2CCOCC2)cc1 | 28 cells
COc1ccccc1OP(C)(=O)Nc1ccc(Br)cc1 (stereo not given) | 60 cells
CN(C(=O)Cc1ccc(Cl)c(Cl)c1)[C@H]1CCCC[C@H]1N1CCCC1 | 45 cells
NC(=O)c1cc([N+](=O)[O-])cc([N+](=O)[O-])c1N | 20 cells
CCc1ccc(OP(C)(=O)O)cc1 | 27 cells
COc1ccccc1OP(C)(=O)Nc1ccc(C)cc1C (stereo not given) | 91 cells
CP(=O)(Nc1ccccn1)Oc1ccccc1 (stereo not given) | 54 cells
Cc1c2non([O-])c-2c(C)[n+](=O)[n+]1[O-] | 84 cells
O=C(NC(Sc1ccncn1)C(Cl)(Cl)Cl)c1ccccc1 (stereo not given) | 53 cells
Oc1ccccc1CNc1ccccn1 | 55 cells
CC(C)CC(=O)NC(Sc1ccc(Cl)cc1)C(Cl)(Cl)Cl (stereo not given) | 52 cells
O=[N+]([O-])c1cc([N+](=O)[O-])c(Nc2ccccn2)c([N+](=O)[O-])c1 | 51 cells
Cc1c(NP(C)(=O)Oc2ccc(C(C)C)cc2)c(=O)n(-c2ccccc2)n1C (stereo not given) | 83 cells
Nc1cc(N)c2nonc2c1[N+](=O)[O-] | 43 cells
CC(C)c1ccc(OP(C)(=O)Nc2ccc(SC(F)(F)F)cc2)cc1 (stereo not given) | 52 cells
CC(C)(C)C(=O)NC(Sc1ccccc1)C(Cl)(Cl)Cl (stereo not given) | 47 cells
CP(=O)(Nc1ccccc1F)Oc1ccccc1 (stereo not given) | 35 cells
CCOc1ccc(C2=NCC(CBr)S2)cc1 (stereo not given) | 40 cells
O=P1(Nc2nc3ccc(Cl)cc3s2)COc2ccccc2O1 (stereo not given) | 77 cells

SMILES | cell count
CC(=O)Nc1ccc(Oc2c([N+](=O)[O-])cc([N+](=O)[O-])cc2[N+](=O)[O-])cc1 | 28 cells
COc1ccc2c(c1O)-c1c(O)c(OC)cc3c1[C@H](C2)[N+](C)(C)CC3.O=[N+]([O-])c1cc([N+](=O)[O-])c([O-])c([N+](=O)[O-])c1[O-] | 80 cells
CC(=O)Nc1ccc([As](=O)(O)O)c(O)c1 | 65 cells
C[C@@H]1C=CCP(=O)(Oc2ccccc2)O1 (stereo not given in full) | 61 cells
C[C@H]1OP(=O)(Oc2ccccc2)C[C@@H]2O[C@@H]21 (stereo not given in full) | 53 cells
Cc1ccccc1CN(C)C(=O)COC(=O)C(O)(c1ccccc1)c1ccccc1 | 56 cells
O=C(OCCN1CCN(CCOCc2ccccc2)CC1)C(O)(c1ccccc1)c1ccccc1 | 60 cells
O=C(OC1CN2CCC1CC2)c1ccc([N+](=O)[O-])cc1 (stereo not given) | 55 cells
COc1ccc(OP(C)(=O)Nc2ccc(SC(F)(F)F)cc2)cc1 (stereo not given) | 40 cells
CCOC(=O)c1ccc(NP(C)(=O)Oc2ccc(F)cc2)cc1 (stereo not given) | 41 cells
Cc1ccc(NP(=O)(Oc2cccc(C)c2)Oc2cccc(C)c2)nc1 | 41 cells
CCOC(=O)NC(Sc1ccccc1)C(Cl)(Cl)Cl (stereo not given) | 85 cells
c1ccc(-c2nn[nH]n2)c(-c2nn[nH]n2)c1 | 101 cells
CCNC(=S)/N=C(\N)N[N+](=O)[O-] | 42 cells
O=C(NC1CCS(=O)(=O)C1)NP(=S)(Oc1ccccc1)Oc1ccccc1 (stereo not given) | 59 cells
CN(C)C(=O)Oc1noc2ccccc12 | 61 cells
CCCCCOc1ccc(NP(C)(=O)Oc2ccc(Cl)cc2Cl)cc1 (stereo not given) | 39 cells
O=[N+]([O-])c1cc([N+](=O)[O-])c(OC2CCCCC2O)c([N+](=O)[O-])c1 (stereo not given) | 58 cells
Cc1ccccc1OP(=O)(Nc1ccccn1)Oc1ccccc1C | 26 cells
CC(NC(=O)COC(=O)C(O)(c1ccccc1)c1ccccc1)c1ccccc1 (stereo not given) | 54 cells
CP(=O)(Nc1ccccc1)Oc1ccc(F)cc1 (stereo not given) | 40 cells
CCN(CC)CCCOC(=O)C(O)(c1ccccc1)C1CCCCC1 (stereo not given) | 87 cells
CCC(=O)N1C2C3N(C(=O)CC)C1C1N(C(=O)CC)C(C(N1C(=O)CC)N3C(=O)CC)N2C(=O)CC | 54 cells

SMILES | cell count
O=C(OC1CN2CCC1CC2)c1ccccc1 (stereo not given) | 51 cells
CC(=O)NC(SC(=S)N(CC(C)C)CC(C)C)C(Cl)(Cl)Cl (stereo not given) | 61 cells
Cc1ccc(OP(=O)(Nc2ccccn2)Oc2ccc(C)cc2)cc1 | 41 cells
COC(=O)c1cc2c(s1)N=C(c1ccccc1)N(C)P2(=O)N1CCOCC1 (stereo not given) | 45 cells
COc1ccc(NP(C)(=O)Oc2ccccc2OC)cc1 (stereo not given) | 53 cells
C[C@H]1OP(=O)(Oc2ccccc2)[C@H](O)[C@H](O)[C@H]1N=[N+]=[N-] (stereo not given in full) | 57 cells
CN(C)CCOC(=O)C(O)(c1ccccc1)C1CCCCC1 (stereo not given) | 48 cells
O=P(Nc1nc2ccccc2s1)(c1ccccc1)c1ccccc1 | 50 cells
O=P(Nc1ccccn1)(c1ccc(Br)cc1)c1ccc(Br)cc1 | 32 cells
CN(C)C1(CNC(=O)c2ccc(Cl)c(S(N)(=O)=O)c2)CCCCC1 | 43 cells
COc1ccc(OP(C)(=O)Nc2cccc(Br)c2)cc1 (stereo not given) | 85 cells
O=C(OC1CN2CCC1CC2)c1cccc(Cl)c1 (stereo not given) | 65 cells
Nc1ccc([As](=O)(O)c2ccc([N+](=O)[O-])cc2)cc1 | 55 cells
C(Cc1nn[nH]n1)Cc1nn[nH]n1 | 78 cells
O=[N+]([O-])c1cc([N+](=O)[O-])c(NCC2CCS(=O)(=O)C2)c([N+](=O)[O-])c1 (stereo not given) | 87 cells
O=[As](O)(c1ccccc1)c1ccc(O)cc1 | 70 cells
O=[N+]([O-])c1ncn(CCn2cnc([N+](=O)[O-])n2)n1 | 57 cells
c1nnnn1CCn1cnnn1 | 64 cells
CCOP(C)(=S)SCC(=O)NC(C)(CC)C(=O)O (stereo not given) | 86 cells
CC(C)C(=O)NC(Sc1ccccc1)C(Cl)(Cl)Cl (stereo not given) | 71 cells
O=P(Nc1nccs1)(c1ccccc1)c1ccccc1 | 29 cells
CP(=O)(Nc1ccc(SC(F)(F)F)cc1)Oc1ccc(F)cc1 (stereo not given) | 58 cells
Cc1ccccc1NP(C)(=O)Nc1ccccc1C | 61 cells
